Laboratory results from PubChem BioAssay AID588590 (National Center for Advancing Translational Sciences (NCATS), 2011).
The campaign covered roughly 390,000 compounds. About 4,000 (1%) were called active. This list was built around the results that the source calls inconclusive (neither active nor inactive); the mix of calls is not that of the screen. The call rests on the fitted dose curve; in most records, active means well fitted inhibition curve with a large enough effect; inconclusive means small, poorly fitted or top-dose-only effect, or another doubt; inactive means no such curve, though single readings can be large or run the other way. A potency beside an inconclusive call is a rough fit, not a confirmed value.

Sequences of proteins named here, by UniProt entry; tags and fusion partners are left off. A change or cut given only in a name is not applied to a line headed by its entry.
UniProt Q9UNA4: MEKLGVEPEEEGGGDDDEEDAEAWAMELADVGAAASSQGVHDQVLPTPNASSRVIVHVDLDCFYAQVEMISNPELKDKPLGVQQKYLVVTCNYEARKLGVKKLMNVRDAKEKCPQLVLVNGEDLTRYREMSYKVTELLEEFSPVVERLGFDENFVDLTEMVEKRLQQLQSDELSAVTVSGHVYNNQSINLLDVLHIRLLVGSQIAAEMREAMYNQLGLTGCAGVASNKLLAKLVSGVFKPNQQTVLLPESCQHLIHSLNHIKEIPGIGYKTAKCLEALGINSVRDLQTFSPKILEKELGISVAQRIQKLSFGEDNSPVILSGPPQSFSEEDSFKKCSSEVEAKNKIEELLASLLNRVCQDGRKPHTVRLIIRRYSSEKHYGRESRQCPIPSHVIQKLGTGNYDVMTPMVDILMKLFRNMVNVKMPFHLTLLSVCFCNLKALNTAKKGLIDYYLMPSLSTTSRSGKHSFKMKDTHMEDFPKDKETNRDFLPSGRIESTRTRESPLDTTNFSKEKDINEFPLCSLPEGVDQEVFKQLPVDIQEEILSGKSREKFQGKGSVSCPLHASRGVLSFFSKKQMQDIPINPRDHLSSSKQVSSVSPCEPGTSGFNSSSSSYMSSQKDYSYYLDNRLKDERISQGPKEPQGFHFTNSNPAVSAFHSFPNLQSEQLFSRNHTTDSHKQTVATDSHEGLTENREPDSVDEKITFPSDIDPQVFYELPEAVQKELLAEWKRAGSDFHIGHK

molecular target: DNA polymerase iota (Homo sapiens) (UniProt Q9UNA4); experiment: qHTS for Inhibitors of Polymerase Iota; details: Pol iota fluorescent replication assay, 10 min; series mostly up to 115 µM
Procedure, shortened: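 Fluorescent replication assay read twice, at 0 min and 10 min after adding 50 nM (final) substrate. Enzyme (10 nM) and compounds were first incubated 15 min at room temperature; enzyme-free buffer wells were negative controls.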
Potency means the concentration at half of the fitted maximal effect.

| SMILES | Potency |
| --- | --- |
| COc1ccc2c(c1)CC1c3c(cc4c(c3-2)OCO4)CC[N+]1(C)[O-] (configuration not stated) | inconclusive: 11.2 µM [inhibitor, partial curve, poor fit] |
| C/C(=N\NC(=O)Cc1cccn1C)c1cccc2ccccc12 | inconclusive: 31.6 µM [inhibitor, single point] |
| Cc1cc(C)c(OCC(=O)Nc2nnn(C)n2)c(Br)c1 | inconclusive: 2.51 µM [inhibitor, partial curve, poor fit] |
| CC(=O)Nc1c(Cl)cnn(-c2ccccc2)c1=O | inactive |
| C[C@H](N)c1nnc(SCC(N)=O)o1 | inconclusive: 89.1 µM [inhibitor, single point] |
| CC(C)(C)OC(=O)CN1C(=O)NC2(CCCc3ccccc32)C1=O (configuration not stated) | inconclusive: 89.1 µM [inhibitor, partial curve, poor fit] |
| O=C(Nc1cccc(-n2cnnn2)c1)c1cccs1 | inconclusive: 15.8 µM [inhibitor, partial curve, poor fit] |
| Oc1ccc(/C=N/Nc2cc(N3CCOCC3)nc(N3CCOCC3)n2)cc1O | inconclusive: 10 µM [inhibitor, full curve, poor fit] |
| O=C(NCCN1CCCC1)C(c1ccccc1)c1ccccc1 | inconclusive: 39.8 µM [inhibitor, full curve, poor fit] |
| COc1ccc(NC(=O)c2ccco2)cc1NC(=O)COc1ccccc1Cl | inconclusive: 89.1 µM [inhibitor, single point] |
| COc1ccc(CCC(=O)OCC(=O)Nc2ccc(C)c(S(=O)(=O)N(C)C)c2)cc1 | active: 89.1 µM |
| O=C(O)c1ccc(-n2c(/C=C/c3cccc([N+](=O)[O-])c3)nc3ccccc3c2=O)cc1 | inconclusive: 0.631 µM [inhibitor, full curve, poor fit] |
| COc1ccccc1NC(=O)N1CCCC1C(=O)NC12CC3CC(CC(C3)C1)C2 (configuration not stated) | inconclusive: 28.2 µM [inhibitor, single point] |
| Clc1cccc(N=C2NN=C(c3ccc4c(c3)OCCO4)CS2)c1 | inconclusive: 17.8 µM [inhibitor, partial curve, poor fit] |
| N=c1n(CC(=O)c2ccc([N+](=O)[O-])cc2)c2ccccc2n1Cc1ccc(Cl)cc1 | inconclusive: 79.4 µM [inhibitor, partial curve, poor fit] |
| CC(C)(C)c1nc(Sc2ncccc2[N+](=O)[O-])n[nH]1 | inactive |
| CCOc1ccccc1NS(=O)(=O)c1ccc2oc(=O)c3ncn(C)c3c2c1 | inconclusive: 50.1 µM [inhibitor, partial curve, poor fit] |

Look-ups from the list.
`COc1ccc(NC(=O)c2ccco2)cc1NC(=O)COc1ccccc1Cl` | Potency: inconclusive: 89.1 µM [inhibitor, single point]
`C/C(=N\NC(=O)Cc1cccn1C)c1cccc2ccccc12` | Potency: inconclusive: 31.6 µM [inhibitor, single point]
